From article PMC5991658
No constants are given. Whether binding was seen depends on the method and setting. Some results given as binding are weak or reduced against the parent protein; the word gives no strength.

T1: ZIPT-7.1 lacking the last 21 C-terminal amino acids (split-ubiquitin bait) (C. elegans) (UniProt Q9XUC4)
T1 sequence: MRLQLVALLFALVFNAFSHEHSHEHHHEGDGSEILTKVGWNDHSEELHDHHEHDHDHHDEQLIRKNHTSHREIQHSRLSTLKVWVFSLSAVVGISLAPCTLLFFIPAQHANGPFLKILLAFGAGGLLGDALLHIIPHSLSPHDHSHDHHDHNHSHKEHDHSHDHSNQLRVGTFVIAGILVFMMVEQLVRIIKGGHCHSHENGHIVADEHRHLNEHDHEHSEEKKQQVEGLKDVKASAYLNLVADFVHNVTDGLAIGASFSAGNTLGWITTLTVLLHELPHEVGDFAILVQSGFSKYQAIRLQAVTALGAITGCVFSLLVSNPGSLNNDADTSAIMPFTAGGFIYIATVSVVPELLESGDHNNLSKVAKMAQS


Molecular target: T1, ZIPT-7.1 lacking the last 21 C-terminal amino acids (split-ubiquitin bait) (C. elegans)
Test: two-hybrid; split-ubiquitin yeast two-hybrid (DUALmembrane kit, Dualsystems Biotech) in yeast NMY51; ZIPT-7.1 on the bait plasmid pBT3-STE, other proteins on prey plasmids; growth on synthetic medium lacking Trp, Leu, His and Ade at three plating dilutions

| Binder | binding |
| --- | --- |
| SPE-4 (protein, UniProt Q01608 1-465) MDTLRSISSELVRSSQLRWTLFSVIANMSLTLSIWIGVYNMEVNSELSKTYFLDPSFEQTTGNLLLDGFINGVGTILVLGCVSFIMLAFVLFDFRRIVKAWLTLSCLLILFGVSAQTLHDMFSQVFDQDDNNQYYMTIVLIVVPTVVYGFGGIYAFFSNSSLILHQIFVVTNCSLISVFYLRVFPSKTTWFVLWIVLFWDLFAVLAPMGPLKKVQEKASDYSKCVLNLIMFSANEKRLTAGSNQEETNEGEESTIRRTVKQTIEYYTKREAQDDEFYQKIRQRRAAINPDSVPTEHSPLVEAEPSPIELKEKNSTEELSDDESDTSETSSGSSNLSSSDSSTTVSTSDISTAEECDQKEWDDLVSNSLPNNDKRPATAADALNDGEVLRLGFGDFVFYSLLIGQAAASGCPFAVISAALGILFGLVVTLTVFSTEESTTPALPLPVICGTFCYFSSMFFWEQLYG | binds |
| SPE-6 (protein, UniProt Q95PZ9 1-379) MSEQRDSRGMPQAGFIIEHQSSDHKWKVLRNIYSGPFSDVYVVADTVTNEKYAMKCERQEGNSRPVLKLDVMVLMATKGLRGFPNFVAAGRTDVYRYCIMQLVGPDLGRLRRTRPERKFSLPTALQILGQTLRRLEDLHNCGWLCRDVKAPNFCIGVGENESTVYILDFGFARKFVDKEGKIIPPRTAAALMGTFQYCAVSAHSHKDQCARDDLESWFYMGIELLKGPLPWANIDGHKNHKQIGEAKVAIRSEPLRSEFFEGVPKQFNEILTILDQTSYFDRPNYKKLGDLLSQAATEHQVTLKEPLDWQNNERMQQKAIFVGELGESHQASAKLDAKDNANESMDIEFDDMPPKEGISKSLSAEKSCTKNVETARTEK | no binding |
| SPE-8 (protein, UniProt O01798 1-512) MRSKSSEGDLQPEDTQSREDKETTATYSEDTKPETQKERNAALDNLAKTPIQLVVQPTPLTPAITPCEAPPPPPPPKPSSDNNNSKRLKVKDQLIEVPSDEVGRVENNIDNFPFYHGFMGRNECEAMLSNHGDFLIRMTEIGKRVAYVISIKWKYQNIHVLVKRTKTKKLYWTKKYAFKSICELIAYHKRNHKPIYEGMTLICGLARHGWQLNNEQVTLNKKLGEGQFGEVHKGSLKTSVFAAPVTVAVKTLHQNHLSANEKILFLREANVMLTLSHPNVIKFYGVCTMKEPIMIVMEFCDGKSLEDALLSKEEKVSAEDKILYLFHAACGIDYLHGKQVIHRDIAARNCLLNSKKILKISDFGLSVKGVAIKERKGGCLPVKYMAPETLKKGLYSTASDIYSYGALMYEVYTDGKTPFETCGLRGNELRKAIIGKRISLAVEVELPVFIANIFEQSRQYETEDRISSKQIIQIFKEEVGFHEIETSGILHKLVNSLPRIHNKERKPAAVAV | no binding |
| SPE-27 (protein, UniProt P54218 18-131) TKTENNFDINDVENKACQYGCGFENVRRTSFRKTYDILYTCSECSTLFDLCIKYRTCQDGCVPEMPVLPYDQAKDVSARIRPPMNPCLDLVTACNYESMDSYEILRSENPFLYI | no binding |
